Structures can show the parent of a compound that is named as a salt. The list shows a part of the results. Repeats in this data set agree poorly, so a single value says little.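 Wells held roughly 40 S. mansoni schistosomula, imaged in bright field over time against wells given 0.1% DMSO. The paper defines hits as drugs with a Mahalanobis distance of at least 2.47, three standard deviations above the DMSO control mean. Degeneracy is the proportion of worms classified as opaque.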
What follows are compounds tested on Schistosoma mansoni schistosomula (assay: Mahalanobis distance of static-rate-frequency phenotype descriptors from DMSO controls (dimensionless); higher = stronger phenotypic change versus DMSO). Conditions: 10 µM; 72 h.
In the case of `CC(=O)NS(=O)(=O)c1ccc(NC(=O)c2ccccc2C(=O)O)cc1` [Phthalylsulfacetamide], the Mahalanobis distance was inactive: 1.57. `OC(CNCC(O)C1CCc2cc(F)ccc2O1)C1CCc2cc(F)ccc2O1` (stereo not given) [Nebivolol Hydrochloride] was tested, and the Mahalanobis distance was inactive: 1.48. With `COc1ccc(OC)c(C(O)CNC(=O)CN)c1` (stereo not given) [Midodrine] the Mahalanobis distance was inactive: 2.26. With `CC(S)C(=O)NCC(=O)O` (stereo not given) [Tiopronin] the Mahalanobis distance was inactive: 1.13. In the case of `CN1CCN(CCCN2c3ccccc3Sc3ccc(C(F)(F)F)cc32)CC1` [trifluoperazine], the Mahalanobis distance was active: 2.6. In the case of `CN1CCN(C(c2ccccc2)c2ccccc2)CC1` [Cyclizine], the Mahalanobis distance was inactive: 1.71. In the case of `C[C@]12CC[C@@H]3c4ccc(OC(=O)c5ccccc5)cc4CC[C@H]3[C@@H]1CC[C@@H]2O` [Estradiol Benzoate], the Mahalanobis distance was inactive: 2.06. With `O=C(O)c1ccccc1C(=O)Nc1ccc(S(=O)(=O)Nc2nccs2)cc1` [Phthalylsulfathiazole] the Mahalanobis distance was active: 2.57. With `C[N+](C)(C)CC(=O)O` [Betaine] the Mahalanobis distance was active: 2.86. With `OCCN(CCO)c1nc(N2CCCCC2)c2nc(N(CCO)CCO)nc(N3CCCCC3)c2n1` [Dipyridamole] the Mahalanobis distance was inactive: 2.47. `C[C@@H]1C[C@H]2[C@@H]3CCC4=CC(=O)C=C[C@]4(C)[C@@]3(F)[C@@H](O)C[C@]2(C)[C@@]1(O)C(=O)COP(=O)(O)O` [Dexamethasone Phosphate] was tested, and the Mahalanobis distance was inactive: 1.62. With `C[C@@H]1C[C@H]2[C@@H]3CCC4=CC(=O)C=C[C@]4(C)[C@@]3(F)[C@@H](O)C[C@]2(C)[C@@]1(O)C(=O)COP(=O)(O)O` [Dexamethasone Sodium Phosphate] the Mahalanobis distance was inactive: 1.82. For `CCN(CC)CCNC(C(=O)OCCC(C)C)c1ccccc1` (stereo not given) [Camylofine Dihydrochloride], the Mahalanobis distance was inactive: 2.19. With `C(=C\c1ccccc1)/CN1CCN(C(c2ccccc2)c2ccccc2)CC1` [Cinnarazine] the Mahalanobis distance was active: 2.63. In the case of `Cc1c(-c2cnccn2)ssc1=S` [oltipraz], the Mahalanobis distance was inactive: 2.35. With `CN1CCC(=C2c3ccccc3Sc3ccccc32)CC1` [Pimethixene Maleate] the Mahalanobis distance was inactive: 2.23. For `N[C@@H](Cc1cc(I)c(Oc2ccc(O)c(I)c2)c(I)c1)C(=O)O` [Liothyronine], the Mahalanobis distance was inactive: 1.66. With `CC1CC(OC(=O)c2ccccc2O)CC(C)(C)C1` (stereo not given) [Homosalate] the Mahalanobis distance was inactive: 2.24. `O=C(CCCN1CCN(c2ccccn2)CC1)c1ccc(F)cc1` [Azaperone] was tested, and the Mahalanobis distance was active: 3.86. For `C[C@@H](O)[C@@H]1NC(=O)[C@H](CCCCN)NC(=O)[C@@H](Cc2c[nH]c3ccccc23)NC(=O)[C@H](Cc2ccccc2)NC(=O)[C@@H](NC(=O)[C@H](N)Cc2ccccc2)CSSC[C@@H](C(=O)N[C@H](CO)[C@@H](C)O)NC1=O` [Octreotide], the Mahalanobis distance was inactive: 1.91.
